Assay results as given in patent publication US20110117169A1, “METHODS AND COMPOSITIONS FOR CAPTURE OF CELLS” (AFFINERGY, INC., priority 2009, published 2011).
These are yes or no findings as the source states them, for the method shown. Some entries that bind do so weakly or less than the wild type.

Target: T1, Recombinant human TGF-β3 (rhTGF-β3) (human) (UniProt P10600)
T1 sequence (looked up): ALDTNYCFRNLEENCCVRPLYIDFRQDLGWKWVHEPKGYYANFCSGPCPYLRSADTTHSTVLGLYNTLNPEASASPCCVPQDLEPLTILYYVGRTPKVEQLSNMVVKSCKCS
Assay: ELISA: biotinylated peptide on streptavidin plate, TGF-β3 titrated 1 µM-1 nM, detected with anti-TGF-β antibody and AP-conjugated secondary antibody

binding: binds
B1: TGF-β binding peptide … (SEQ ID NO: 21), biotinylated (peptide)
peptide: SSCNNLSVCTFDKIIERNRSSRGSSGK
modifications: biotin on the Lys of the C-terminal GSSGK(biotin) sequence
